Our source for the T/C values is PubChem BioAssay AID248 (DTP/NCI, 2004).

The list is a part of this screen's results and no random one: it gathers some chemical classes. Not every dose and run of a compound is shown. T/C gives the treated animals as a percentage of the vehicle group. For survival time, the PubChem record calls one and a half times the control and up active, and a quarter to a half above the control has no call in these data; cut-offs in other NCI protocols can differ. Some entries show no survivor count and are marked so; the dose need not have been tolerated. Schedules are NCI's codes, read here as Q, the interval in days (D) or hours (H), X, the number of doses.

The experiment has as its system L1210 leukemia ip in BDF1 mice, survival T/C. Put plainly: NCI In Vivo Anticancer Drug Screen. Data for tumor model L1210 Leukemia (intraperitoneal) in B6D2F1 (BDF1) mice. To be noted: T/C endpoint: mean survival time, vehicle: saline, higher T/C = longer survival.

Consider `COCc1c(CN(CCCl)CCCl)cnc(C)c1O`, for which the T/C by setting is: (dose: 4.4 mg/kg/injection, schedule: Q01DX001 (ip)) 107 % of control [survivor count not shown]; (dose: 4.4 mg/kg/injection, schedule: Q01DX009 (ip)) 143 % of control [survivor count not shown]; (dose: 6.7 mg/kg/injection, schedule: Q01DX001 (ip)) 128 % of control [survivor count not shown]; (dose: 6.7 mg/kg/injection, schedule: Q01DX009 (ip)) 150 % of control [survivor count not shown]; (dose: 9.5 mg/kg/injection, schedule: Q01DX001 (ip)) 167 % of control [survivor count not shown]; (dose: 10.0 mg/kg/injection, schedule: Q01DX001 (ip)) 128 % of control [survivor count not shown]. For the same molecule, the T/C (dose: 10.0 mg/kg/injection, schedule: Q01DX009 (ip)) is 192 % of control [survivor count not shown]; the T/C (dose: 15.0 mg/kg/injection, schedule: Q01DX001 (ip)) was 148 % of control [survivor count not shown]; the T/C (dose: 15.0 mg/kg/injection, schedule: Q01DX009 (ip)) is 95 % of control [survivor count not shown]; the T/C (dose: 19.0 mg/kg/injection, schedule: Q01DX001 (ip)) was 149 % of control [survivor count not shown].
